# Counter-ions that a name gives are not always drawn. The list shows a part of the results. Part of the spread comes from offsets between plates or batches.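 The cells are HEK293 lines stably expressing B-domain-deleted factor VIII fused to Gaussia luciferase, either wild type or a misfolding-prone missense mutant. Each score is mean luminescence from triplicate wells minus the DMSO mean, divided by the DMSO standard deviation; a score of 2 or more counts as a hit, and low scores may reflect lower secretion or poorer cell viability.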
# Legend:
# HEK293 WT BDD-FVIII-Gluc = assay: secreted FVIII-Gluc luciferase Z-score vs DMSO control; higher = more FVIII-Gluc secretion; details: 5 µM; 24 h
# [1] = tested on: HEK293 p.N1941S BDD-FVIII-Gluc; assay: as above; details: 5 µM; 24 h
Structure (SMILES),secreted FVIII-Gluc luciferase Z-score (HEK293 WT BDD-FVIII-Gluc),secreted FVIII-Gluc luciferase Z-score [1]
CN(Cc1ccc(C(C)(C)C)cc1)Cc1cccc2ccccc12 [Butenafine HCl],inactive: -1.69,inactive: -0.595
O=C(O)CCc1nc2ccccc2[nH]1 [Procodazole],active: 2.97,inactive: 1.58
NCC(=O)CCC(=O)O [5-Aminolevulinic acid hydrochloride],inactive: 1.04,inactive: 0.32
Cc1cccc(C)c1NC(=O)C1CCCCN1C (stereo unspecified) [Mepivacaine HCl],inactive: -1.33,inactive: -0.792
Cc1c(Cl)cccc1Nc1ccccc1C(=O)O [Tolfenamic acid],inactive: -0.609,inactive: 0.0941
CNCC[C@@H](Oc1ccccc1C)c1ccccc1 [Atomoxetine HCl],inactive: -0.944,inactive: 0.307
COC(=O)C1=C(C)NC(C)=C(C(=O)OC(C)C)C1c1cccc2nonc12 (stereo unspecified) [Isradipine (Dynacirc)],inactive: -0.0407,inactive: 0.125
Nc1ccn([C@@H]2O[C@H](CO)[C@@H](O)[C@H]2O)c(=O)n1 [Cytidine],inactive: -1.76,inactive: 0.147
CC(C)CN(C[C@@H](O)[C@H](Cc1ccccc1)NC(=O)O[C@H]1CCOC1)S(=O)(=O)c1ccc(N)cc1 [Amprenavir (Agenerase)],inactive: -0.647,inactive: 0.917
CCCCNC(=O)NS(=O)(=O)c1ccc(C)cc1 [Tolbutamide],inactive: -0.575,inactive: -0.418
CCN(CC)CCOC(=O)C(c1ccccc1)c1ccccc1 [Adiphenine HCl],inactive: -0.552,inactive: -0.625
O=S(=O)(O)NC1CCCCC1 [Cyclamic  acid],inactive: -0.47,inactive: -1.87
C[C@]12CC[C@@H]3c4ccc(O)cc4CC[C@H]3[C@@H]1CC[C@@H]2OC(=O)CCC1CCCC1 [Estradiol Cypionate],inactive: 0.19,inactive: 1.3
CCOC(=O)n1ccn(C)c1=S [Carbimazole],inactive: -0.472,inactive: -0.111
"CS(=O)(=O)OCCCCOS(C)(=O)=O [Busulfan (Myleran, Busulfex)]",inactive: -1.05,inactive: 0.863
CN1CCC(=C2c3ccccc3CCc3cccnc32)CC1 [Azatadine dimaleate],inactive: -0.992,inactive: -0.51
CN(N=O)C(=O)NC1C(O)OC(CO)C(O)C1O (stereo unspecified) [Streptozotocin (Zanosar)],inactive: -2,inactive: -0.0647
CC[C@@H]1C(=O)OC[C@@H]1Cc1cncn1C [Pilocarpine HCl],inactive: -0.4,inactive: -0.609
CCN1CCN(C(=O)N[C@@H](C(=O)N[C@@H]2C(=O)N3C(C(=O)O)=C(CSc4nnnn4C)CS[C@H]23)c2ccc(O)cc2)C(=O)C1=O [Cefoperazone (Cefobid)],inactive: -1.13,inactive: 0.259
Nc1nc(O)c2ncn(CCC(CO)CO)c2n1 [Penciclovir],inactive: 1.42,inactive: -0.886
NC(=O)OCC(COC(N)=O)c1ccccc1 [Felbamate],inactive: -3.8,inactive: -2.09
CNC1CCCN(c2c(F)cc3c(=O)c(C(=O)O)cn(C4CC4)c3c2OC)C1 (stereo unspecified) [Balofloxacin],inactive: -2.52,inactive: -1.47
CCc1cc2c(cc1CC)CC(NC[C@H](O)c1ccc(O)c3[nH]c(=O)ccc13)C2 [Indacaterol Maleate],active: 2.06,inactive: -0.561
O=C1C(=O)c2ccccc2C(O)=C1C1CCC(c2ccc(Cl)cc2)CC1 (stereo unspecified) [Atovaquone (Atavaquone)],inactive: -1.36,inactive: 0.0699
NC(=O)c1ncn([C@@H]2O[C@H](CO)[C@@H](O)[C@H]2O)n1 [Ribavirin (Copegus)],inactive: -0.159,inactive: -1.62
CN(C)c1nc(N(C)C)nc(N(C)C)n1 [Altretamine (Hexalen)],active: 4.9,inactive: -2.19
Cc1cnc(NC(=O)C2=C(O)c3ccccc3S(=O)(=O)N2C)s1 [Meloxicam (Mobic)],inactive: -3.9,inactive: -1.36
OC[C@H]1O[C@H](O[C@]2(CCl)O[C@H](CCl)[C@@H](O)[C@@H]2O)[C@H](O)[C@@H](O)[C@H]1Cl [Sucralose],inactive: -0.413,inactive: -0.495

# A few values from the list:
# Value for CN1CCC(=C2c3ccccc3CCc3cccnc32)CC1 [Azatadine dimaleate] under secreted FVIII-Gluc luciferase Z-score (HEK293 WT BDD-FVIII-Gluc): inactive: -0.992
# Value for Cc1c(Cl)cccc1Nc1ccccc1C(=O)O [Tolfenamic acid] under secreted FVIII-Gluc luciferase Z-score [1]: inactive: 0.0941
